These are yes or no findings as the source states them, for the method shown. In cells and extracts the contact can be indirect. A result given as binding can be weak or reduced; the word gives no strength.
Target: T1, VPS41 (as in the co-immunoprecipitations with KAI1) (UniProt P49754)
T1 sequence: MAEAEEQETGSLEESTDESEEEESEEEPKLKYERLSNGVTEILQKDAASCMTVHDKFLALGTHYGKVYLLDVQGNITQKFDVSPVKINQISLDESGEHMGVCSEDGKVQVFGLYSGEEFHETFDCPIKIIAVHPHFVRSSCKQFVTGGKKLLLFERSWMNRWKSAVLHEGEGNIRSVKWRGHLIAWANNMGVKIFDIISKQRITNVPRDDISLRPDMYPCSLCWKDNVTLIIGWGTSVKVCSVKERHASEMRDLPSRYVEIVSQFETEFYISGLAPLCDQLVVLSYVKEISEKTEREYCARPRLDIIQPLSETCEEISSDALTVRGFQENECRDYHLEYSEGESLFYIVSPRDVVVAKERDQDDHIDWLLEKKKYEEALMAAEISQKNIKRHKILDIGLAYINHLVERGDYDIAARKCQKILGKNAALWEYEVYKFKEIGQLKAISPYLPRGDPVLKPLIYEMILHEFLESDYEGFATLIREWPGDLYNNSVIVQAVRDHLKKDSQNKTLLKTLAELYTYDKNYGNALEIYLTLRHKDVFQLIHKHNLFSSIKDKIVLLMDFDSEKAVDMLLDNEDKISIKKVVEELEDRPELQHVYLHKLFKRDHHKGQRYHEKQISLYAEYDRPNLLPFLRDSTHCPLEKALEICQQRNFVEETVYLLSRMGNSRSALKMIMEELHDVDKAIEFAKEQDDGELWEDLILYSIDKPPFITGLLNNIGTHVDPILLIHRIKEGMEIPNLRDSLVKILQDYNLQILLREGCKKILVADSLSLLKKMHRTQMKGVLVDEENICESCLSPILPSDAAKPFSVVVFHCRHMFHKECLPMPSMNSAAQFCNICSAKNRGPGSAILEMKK
Test: co-IP; HEK-293T cells transfected with VPS41 or KAI1 truncation plasmids

binding: binds
Substance: KAI1-Δ111-228 (domain or fragment)

Reference: publication PMC12224964
